This data set can be described thus: Boc solid-phase peptide synthesis; 4-methylbenzhydrylamine-polystyrene resin; diisopropyl carbodiimide, hydroxybenzotriazole hydrate; BOP reagent in solution. The conditions noted are these: whole synthesis, scale 0.64 mmole.

Take Tyrosyl-D-alanyl-glycyl-AHPPA amide: the isolated mass amounted to 24 mg.

Values taken from patent US5663295A (Biomeasure Inc., priority 1994, dated 1997).
